# Some peptides are written in HELM: one residue between dots, names in brackets for other building blocks, links after the first $.
# Legend:
# [1] = general procedure: Boc solid-phase peptide synthesis; Boc-Tyr(2-BrZ)-PAM resin; conditions: whole synthesis, scale 0.5 mmol
# [2] = general procedure: Boc solid-phase peptide synthesis; PAM resin (Boc-Tyr-(2-Bromobenzyloxycarbonyl)-PAM resin); conditions: whole synthesis, scale of the general procedure 0.5 mmol
substance,measurement,setting,value
"PEPTIDE1{S.L.R.R.S.S.C.F.G.G.R.I.D.R.I.G.A.Q.S.G.L.G.C.N.S.F.R.Y}$PEPTIDE1,PEPTIDE1,7:R3-23:R3$$$V2.0",crude mass,[1],0.3 g
same,final HPLC purity,[2]; HPLC peak area ratio,98.3%
same,final HPLC purity,"[2]; HPLC, ratio of peak area to total peak area",about 95%

# — patent US5204327A (Ashi Kasei Kogyo Kabushiki Kaisha, priority 1988, dated 1993)
